Experimental data as given in publication PMC5845145.
Results are given in words; binding and its absence hold for the method and conditions named. Binding seen in cells or lysates may run through a third protein. Some entries that bind do so weakly or less than the wild type.

Protein sequences, listed by entry. Tags and fused reporters are not part of them. Residues count along the entry.
UniProt P08962: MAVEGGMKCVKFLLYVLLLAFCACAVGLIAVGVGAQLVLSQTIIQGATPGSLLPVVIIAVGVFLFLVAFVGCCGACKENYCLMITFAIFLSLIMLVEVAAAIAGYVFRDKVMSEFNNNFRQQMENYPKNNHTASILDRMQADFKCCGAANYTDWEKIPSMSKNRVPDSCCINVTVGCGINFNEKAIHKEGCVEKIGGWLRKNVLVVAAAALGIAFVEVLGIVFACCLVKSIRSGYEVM
UniProt P01033, residues 24-207: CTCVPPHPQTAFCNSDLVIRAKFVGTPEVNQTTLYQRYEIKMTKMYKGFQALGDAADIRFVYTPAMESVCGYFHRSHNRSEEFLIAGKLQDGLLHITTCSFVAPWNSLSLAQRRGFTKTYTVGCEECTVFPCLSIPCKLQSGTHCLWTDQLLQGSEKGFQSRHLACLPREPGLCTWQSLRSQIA

Assays:
[1] = molecular target: CD63 (human (endogenous in glioblastoma tissue and U87MG)) (UniProt P08962); assay: proximity ligation; Duolink In Situ on organotypic spheroids and U87MG cell line-derived spheroids; data not shown
[2] = molecular target: CD63 (human (endogenous in glioblastoma tissue and U87MG)) (UniProt P08962); assay: proximity ligation; Duolink In Situ on paraffin sections of glioblastoma biopsies; mouse anti-TIMP-1 (VT7) and rabbit anti-CD63 (HPA010088); omission of primary antibodies as negative control
[3] = molecular target: CD63 (human (endogenous in glioblastoma tissue and U87MG)) (UniProt P08962); assay: co-IP; lysate of U87MG cell line-derived spheroids (50 mM HEPES pH 7.4, 150 mM NaCl, 10% glycerol, 1% Triton X-100, 1 mM EDTA); CD63 antibody MX-49.129.5 or isotype control on Protein G-Dynabeads overnight; immunoblot with anti-TIMP-1

- binding [1]: binds
- binding [2]: binds
- binding [3]: binds
Substance: tissue inhibitor of metalloproteinases-1 (TIMP-1) (from UniProt P01033 24-207)
